Experimental data reported in publication doi:10.1101/2021.09.07.459348.
No constants are given. Whether binding was seen depends on the method and setting. In cells and extracts the contact can be indirect.

By UniProt entry, the sequences of proteins in these tests, tags left out.
UniProt Q14494: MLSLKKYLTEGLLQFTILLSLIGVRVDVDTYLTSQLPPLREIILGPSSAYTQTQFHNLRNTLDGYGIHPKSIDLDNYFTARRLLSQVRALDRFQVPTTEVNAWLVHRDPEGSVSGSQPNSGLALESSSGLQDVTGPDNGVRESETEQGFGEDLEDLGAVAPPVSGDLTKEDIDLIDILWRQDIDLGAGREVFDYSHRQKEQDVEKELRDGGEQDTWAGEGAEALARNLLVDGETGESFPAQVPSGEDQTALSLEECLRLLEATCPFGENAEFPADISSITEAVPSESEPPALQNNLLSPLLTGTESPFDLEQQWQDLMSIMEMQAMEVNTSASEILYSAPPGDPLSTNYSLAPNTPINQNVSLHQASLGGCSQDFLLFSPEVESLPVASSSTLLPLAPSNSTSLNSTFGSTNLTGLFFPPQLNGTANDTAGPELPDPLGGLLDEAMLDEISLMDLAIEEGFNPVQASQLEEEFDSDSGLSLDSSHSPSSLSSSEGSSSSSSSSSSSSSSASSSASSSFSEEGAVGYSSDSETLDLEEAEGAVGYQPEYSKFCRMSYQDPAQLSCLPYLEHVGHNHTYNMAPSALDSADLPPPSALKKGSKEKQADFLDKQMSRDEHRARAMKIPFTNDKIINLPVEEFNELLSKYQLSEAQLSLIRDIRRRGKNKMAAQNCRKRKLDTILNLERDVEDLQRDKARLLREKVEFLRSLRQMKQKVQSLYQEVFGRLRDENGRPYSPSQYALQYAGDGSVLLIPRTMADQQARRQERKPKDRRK

Target: T1, serine/threonine kinase 11 (STK11/LKB1) (human (endogenous in HEK293T)) (UniProt Q15831)
T1 sequence: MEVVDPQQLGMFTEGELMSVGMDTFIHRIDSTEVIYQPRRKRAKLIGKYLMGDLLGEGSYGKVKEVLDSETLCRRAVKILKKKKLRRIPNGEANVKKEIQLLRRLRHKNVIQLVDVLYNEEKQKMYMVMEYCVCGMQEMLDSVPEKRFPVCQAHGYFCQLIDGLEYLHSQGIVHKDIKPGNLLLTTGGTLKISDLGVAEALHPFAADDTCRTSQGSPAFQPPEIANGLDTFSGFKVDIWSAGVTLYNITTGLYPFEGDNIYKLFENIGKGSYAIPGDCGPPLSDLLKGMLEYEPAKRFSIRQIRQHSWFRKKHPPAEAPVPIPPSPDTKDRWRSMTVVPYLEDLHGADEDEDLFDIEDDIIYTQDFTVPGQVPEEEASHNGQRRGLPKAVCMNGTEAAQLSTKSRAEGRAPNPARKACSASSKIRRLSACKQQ
Experiment: co-IP

- binding: no binding
Substance: Nuclear factor erythroid 2 like 1 (NFE2L1/Nrf1) (from UniProt Q14494 1-772)
